PubChem BioAssay AID504808 | Drosophila RNAi Screening Center – 2011
In all, the deposit lists about 21,000 reagents; below is an unselected part of those with a known target gene and a result. Of all reagents, 18 (0.084%) got an active call. 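Raw counts without plate normalisation, one of two replicates; the ratio scores behind the calls were not deposited.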 Names joined by + are all predicted targets of the reagent. Not given: the amount of reagent, the time to read-out.

Assay: 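Fly genes required to hold E2F transcription in check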 (primary screen)
System: Drosophila S2 cells
Reagent: long dsRNA against Drosophila genes
Measured: 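Firefly luciferase driven by E2F sites, normalised to Renilla luciferase on the same minimal promoter, measured by plate reader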
Direction: E2F firefly: higher = more E2F reporter activity; Renilla normaliser: higher = more normaliser reporter signal
Active means: 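Called active if the normalised E2F reporter went up by over 50%; the cutoff is arbitrary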

target gene | DRSC id | E2F firefly, rep 1 | Renilla normaliser, rep 1 | activity call
CG17140 + CG17139 | DRSC02585 | 1.67e5 | 5246 | inactive
CG17140 + CG17139 | DRSC02586 | 1.65e5 | 5155 | inactive
Bbd | DRSC06709 | 1.51e5 | 4897 | inactive
Ugt37C1 | DRSC07416 | 1.60e5 | 4767 | inactive
Pfrx | DRSC18856 | 1.42e5 | 7217 | inactive
Pfrx | DRSC19315 | 88915 | 3332 | inactive
CG5641 | DRSC15852 | 80782 | 3666 | inactive
Cyp309a2 | DRSC00526 | 1.61e5 | 6238 | inactive
Or10a | DRSC20264 | 1.14e5 | 5927 | inactive
B4 | DRSC01868 | 77044 | 3624 | inactive
B4 | DRSC03175 | 1.13e5 | 4723 | inactive
CG34241 | DRSC09157 | 1.29e5 | 4845 | inactive
CG7368 | DRSC10826 | 1.11e5 | 5105 | inactive
CG34049 | DRSC00104 | 1.35e5 | 5324 | inactive
srp | DRSC13125 | 87496 | 2631 | inactive
srp | DRSC17068 | 70528 | 4935 | inactive
CG4424 | DRSC15576 | 60681 | 3543 | inactive
RIOK2 | DRSC14413 | 1.04e5 | 6917 | inactive
CG13978 | DRSC14720 | 1.19e5 | 5709 | inactive
CG6813 | DRSC16122 | 1.56e5 | 6621 | inactive
CG3632 | DRSC19137 | 62841 | 2116 | inactive
CG3632 | DRSC19871 | 8850 | 732 | inactive

5 entries already listed, sorted by “E2F firefly, rep 1”, lowest first:
target gene | DRSC id | E2F firefly, rep 1 | Renilla normaliser, rep 1 | activity call
srp | DRSC17068 | 70528 | 4935 | inactive
srp | DRSC13125 | 87496 | 2631 | inactive
CG7368 | DRSC10826 | 1.11e5 | 5105 | inactive
CG34241 | DRSC09157 | 1.29e5 | 4845 | inactive
CG34049 | DRSC00104 | 1.35e5 | 5324 | inactive

The results go on:
target gene | DRSC id | E2F firefly, rep 1 | Renilla normaliser, rep 1 | activity call
CG16820 | DRSC02522 | 74251 | 3727 | inactive
CG15317 | DRSC18005 | 1.25e5 | 6150 | inactive
Ciz1 | DRSC09675 | 1.07e5 | 7452 | inactive
SMC3 | DRSC20227 | 1.51e5 | 6579 | inactive
Rrp47 | DRSC20124 | 1.50e5 | 8035 | inactive
CG31639 | DRSC00910 | 1.29e5 | 6129 | inactive
pnut | DRSC07666 | 2994 | 208 | inactive
alpha-Est2 | DRSC12614 | 1.34e5 | 6130 | inactive
PNPase | DRSC14304 | 1947 | 800 | inactive
HP6 | DRSC00471 | 1.34e5 | 4745 | inactive
ps | DRSC15149 | 1.38e5 | 6190 | inactive
ps | DRSC15151 | 1.13e5 | 5052 | inactive
ps | DRSC15152 | 82024 | 4261 | inactive
ps | DRSC16388 | 1.47e5 | 6134 | inactive
